Assay results: article PMC10331583, “Control of fibrosis with enhanced safety via asymmetric inhibition of prolyl‐tRNA synthetase 1” (EMBO Molecular Medicine, 2023)
Where two headings read alike, the source gives them in different places. Where no unit stands, none is given here, and values compare only within one read-out.

How the values were obtained:
WI‐26 VA4 cells [1] = assay: Puromycin incorporation assay; format: cell-based, human; details: for puromycin IC50/collagen IC50 / Relative (puromycin IC50)/(collagen IC50): Fig 5G; for Hill slope of puromycin incorporation / Relative slope of puromycin incorporation: Fig 5J; for Relative (puromycin IC50)/(collagen IC50) / Relative slope of puromycin incorporation: relative to HF
Description: After being rinsed with cold PBS twice, the cells were collected and resuspended in 200 μl of the carbonate bicarbonate buffer (Sigma Aldrich, C3041‐50CAP) with protease inhibitor. The cell lysates were obtained by sonication and centrifugation at 20,000 g for 15 min at 4°C. After protein quantification using a Pierce™ BCA Protein Assay Kit (Thermo Fisher Scientific, 23225), 400 ng of the proteins was coated to ELISA plates for 18 h at 4°C. […] The plates were rinsed with the washing buffer for three times after each antibody incubation step. […] The amount of puromycin incorporated in proteins was determined by measuring the absorbance at 450 nm (reference wavelength at 620 nm). Experimental values marked in red with strikethrough text in the Figure Source Data file were excluded from the analysis. These values were determined by considering the values of biological and technical replicates under the same condition, as well as the values at the former and later chemical concentrations.

PARS1 = system: T1, PARS1; assay: Co‐crystal structures of PARS1 with compounds and ATP (binding mode); design: species or system human; details: co‐crystal with ATP (HF: PDB 4HVC with ANP)
T1 construct: glutamyl‐prolyl‐tRNA synthetase 1 (EPRS1), which comprises glutamyl‐tRNA synthetase 1 (EARS1), three repeats of WHEP domain, and PARS1; made in house; host or cells: Escherichia coli

WI‐26 VA4 cells [2] = assay: Collagen ELISA (secreted pro‐collagen I); details: Fig 5H; for Relative slope of collagen level: relative to HF
[3] = system: TNT Quick Coupled Transcription/Translation System (luciferase synthesis); format: biochemical; details: for luciferase IC50/collagen IC50 / Relative (luciferase IC50)/(collagen IC50): Fig 5F; for Relative (luciferase IC50)/(collagen IC50) / Relative slope of luciferase activity: relative to HF
WI‐26 VA4 cells [4] = assay: CellTiter‐Glo assay (cytotoxicity); details: log(inhibitor) vs. response, variable slope (four parameters)
[5] = system: WI‐26 VA4 cells stably expressing EV (empty vector); assay: Collagen ELISA in cells stably expressing EV; details: for Hill slope (collagen): EV cells
[6] = system: WI‐26 VA4 cells stably expressing PARS1 FA/EA/RL mutant; assay: Collagen ELISA in cells stably expressing PARS1 mutant
[7] = log(inhibitor) vs. response, variable slope (four parameters)

Row | Compound | puromycin IC50/collagen IC50 (WI‐26 VA4 cells [1]) | Hill slope of puromycin incorporation (WI‐26 VA4 cells [1]) | Relative (puromycin IC50)/(collagen IC50) (WI‐26 VA4 cells [1]) | Relative slope of puromycin incorporation (WI‐26 VA4 cells [1]) [a.u.] | binding mode to PARS1 protomers (PARS1) | Hill slope of Collagen level (WI‐26 VA4 cells [2]) | Relative slope of collagen level (WI‐26 VA4 cells [2]) [a.u.] | luciferase IC50/collagen IC50 [3] | Hill slope of luciferase activity ([3]; Fig 5I) | TNT-luciferase HillSlope (best-fit value) [3, 7] | Relative (luciferase IC50)/(collagen IC50) [3] | Relative slope of luciferase activity ([3]; Fig 5I) [a.u.] | CellTiter-Glo HillSlope (best-fit value) (WI‐26 VA4 cells [4]) | Hill slope (collagen) [5] | Relative slope (collagen) ([5]; EV cells (reference)) | Hill slope (collagen) [6] | Relative slope (collagen) ([6]; relative to EV) | Hill slope of luciferase activity [3] | TNT-luciferase HillSlope (best-fit value) [3]
1 | O=C(C[C@H]1NCCC[C@@H]1O)Cn1cnc2ccc(-c3cccc(F)c3)cc21 [DWN11251] | 16.50 | -1.784 | 1.26 | -0.64 | asymmetrically | -1.623 | -0.74 | 24.71 | -1.585 | -1.585 | 2.31 | -0.40 | -1.095 |  |  |  |  |  | 
2 | Cc1c(Cl)ccc2c1ncn2CC(=O)C[C@H]1NCCC[C@@H]1O [DWN11748] | 10.01 | -2.365 | 0.76 | -0.85 | symmetrically | -2.011 | -0.92 | 9.55 | -2.23 | -2.23 | 0.89 | -0.56 | -0.7897 |  |  |  |  |  | 
3 | Cc1c(Br)cnc2c1ncn2CC(=O)C[C@H]1NCCC[C@@H]1O [DWN11761] | 10.82 | -3.124 | 0.82 | -1.12 | symmetrically | -2.337 | -1.07 | 11.08 | -2.414 | -2.414 | 1.04 | -0.60 | -0.577 |  |  |  |  |  | 
4 | O[C@H]1CCCN[C@@H]1CCCn1cnc2c(Cl)c(Cl)ccc21 [DWN12088] | 28.10 | -1.616 | 2.14 | -0.58 | asymmetrically | -1.329 | -0.61 | 24.90 | -1.54 | -1.54 | 2.33 | -0.38 | -0.9531 | -0.8641 | -1 | -1.331 | -1.540 |  | 
5 | O=C(CC1NCCCC1O)Cn1cnc2cc(Br)c(Cl)cc2c1=O (stereo not shown) [HF, Halofuginone, reference compound] |  | -2.795 |  |  | symmetrically | -2.183 |  |  |  |  |  |  | -1.263 | -1.549 |  | -1.829 |  | -4.003 | -4.003
